No constants are given. Whether binding was seen depends on the method and setting. In cells and extracts the contact can be indirect. Some binding calls cover weakened binding; strength is not graded here.
Biological target: BIR repeat containing ubiquitin-conjugating enzyme (mouse (endogenous in HT22)) (UniProt O88738)
Test: co-IP; HT22 cell lysate (500 ug) incubated with antibody and Dynabeads Protein G at 4 °C; IgG as negative control; Western blot

Amino acid sequences for entries named in this document (tags omitted).
UniProt O88738: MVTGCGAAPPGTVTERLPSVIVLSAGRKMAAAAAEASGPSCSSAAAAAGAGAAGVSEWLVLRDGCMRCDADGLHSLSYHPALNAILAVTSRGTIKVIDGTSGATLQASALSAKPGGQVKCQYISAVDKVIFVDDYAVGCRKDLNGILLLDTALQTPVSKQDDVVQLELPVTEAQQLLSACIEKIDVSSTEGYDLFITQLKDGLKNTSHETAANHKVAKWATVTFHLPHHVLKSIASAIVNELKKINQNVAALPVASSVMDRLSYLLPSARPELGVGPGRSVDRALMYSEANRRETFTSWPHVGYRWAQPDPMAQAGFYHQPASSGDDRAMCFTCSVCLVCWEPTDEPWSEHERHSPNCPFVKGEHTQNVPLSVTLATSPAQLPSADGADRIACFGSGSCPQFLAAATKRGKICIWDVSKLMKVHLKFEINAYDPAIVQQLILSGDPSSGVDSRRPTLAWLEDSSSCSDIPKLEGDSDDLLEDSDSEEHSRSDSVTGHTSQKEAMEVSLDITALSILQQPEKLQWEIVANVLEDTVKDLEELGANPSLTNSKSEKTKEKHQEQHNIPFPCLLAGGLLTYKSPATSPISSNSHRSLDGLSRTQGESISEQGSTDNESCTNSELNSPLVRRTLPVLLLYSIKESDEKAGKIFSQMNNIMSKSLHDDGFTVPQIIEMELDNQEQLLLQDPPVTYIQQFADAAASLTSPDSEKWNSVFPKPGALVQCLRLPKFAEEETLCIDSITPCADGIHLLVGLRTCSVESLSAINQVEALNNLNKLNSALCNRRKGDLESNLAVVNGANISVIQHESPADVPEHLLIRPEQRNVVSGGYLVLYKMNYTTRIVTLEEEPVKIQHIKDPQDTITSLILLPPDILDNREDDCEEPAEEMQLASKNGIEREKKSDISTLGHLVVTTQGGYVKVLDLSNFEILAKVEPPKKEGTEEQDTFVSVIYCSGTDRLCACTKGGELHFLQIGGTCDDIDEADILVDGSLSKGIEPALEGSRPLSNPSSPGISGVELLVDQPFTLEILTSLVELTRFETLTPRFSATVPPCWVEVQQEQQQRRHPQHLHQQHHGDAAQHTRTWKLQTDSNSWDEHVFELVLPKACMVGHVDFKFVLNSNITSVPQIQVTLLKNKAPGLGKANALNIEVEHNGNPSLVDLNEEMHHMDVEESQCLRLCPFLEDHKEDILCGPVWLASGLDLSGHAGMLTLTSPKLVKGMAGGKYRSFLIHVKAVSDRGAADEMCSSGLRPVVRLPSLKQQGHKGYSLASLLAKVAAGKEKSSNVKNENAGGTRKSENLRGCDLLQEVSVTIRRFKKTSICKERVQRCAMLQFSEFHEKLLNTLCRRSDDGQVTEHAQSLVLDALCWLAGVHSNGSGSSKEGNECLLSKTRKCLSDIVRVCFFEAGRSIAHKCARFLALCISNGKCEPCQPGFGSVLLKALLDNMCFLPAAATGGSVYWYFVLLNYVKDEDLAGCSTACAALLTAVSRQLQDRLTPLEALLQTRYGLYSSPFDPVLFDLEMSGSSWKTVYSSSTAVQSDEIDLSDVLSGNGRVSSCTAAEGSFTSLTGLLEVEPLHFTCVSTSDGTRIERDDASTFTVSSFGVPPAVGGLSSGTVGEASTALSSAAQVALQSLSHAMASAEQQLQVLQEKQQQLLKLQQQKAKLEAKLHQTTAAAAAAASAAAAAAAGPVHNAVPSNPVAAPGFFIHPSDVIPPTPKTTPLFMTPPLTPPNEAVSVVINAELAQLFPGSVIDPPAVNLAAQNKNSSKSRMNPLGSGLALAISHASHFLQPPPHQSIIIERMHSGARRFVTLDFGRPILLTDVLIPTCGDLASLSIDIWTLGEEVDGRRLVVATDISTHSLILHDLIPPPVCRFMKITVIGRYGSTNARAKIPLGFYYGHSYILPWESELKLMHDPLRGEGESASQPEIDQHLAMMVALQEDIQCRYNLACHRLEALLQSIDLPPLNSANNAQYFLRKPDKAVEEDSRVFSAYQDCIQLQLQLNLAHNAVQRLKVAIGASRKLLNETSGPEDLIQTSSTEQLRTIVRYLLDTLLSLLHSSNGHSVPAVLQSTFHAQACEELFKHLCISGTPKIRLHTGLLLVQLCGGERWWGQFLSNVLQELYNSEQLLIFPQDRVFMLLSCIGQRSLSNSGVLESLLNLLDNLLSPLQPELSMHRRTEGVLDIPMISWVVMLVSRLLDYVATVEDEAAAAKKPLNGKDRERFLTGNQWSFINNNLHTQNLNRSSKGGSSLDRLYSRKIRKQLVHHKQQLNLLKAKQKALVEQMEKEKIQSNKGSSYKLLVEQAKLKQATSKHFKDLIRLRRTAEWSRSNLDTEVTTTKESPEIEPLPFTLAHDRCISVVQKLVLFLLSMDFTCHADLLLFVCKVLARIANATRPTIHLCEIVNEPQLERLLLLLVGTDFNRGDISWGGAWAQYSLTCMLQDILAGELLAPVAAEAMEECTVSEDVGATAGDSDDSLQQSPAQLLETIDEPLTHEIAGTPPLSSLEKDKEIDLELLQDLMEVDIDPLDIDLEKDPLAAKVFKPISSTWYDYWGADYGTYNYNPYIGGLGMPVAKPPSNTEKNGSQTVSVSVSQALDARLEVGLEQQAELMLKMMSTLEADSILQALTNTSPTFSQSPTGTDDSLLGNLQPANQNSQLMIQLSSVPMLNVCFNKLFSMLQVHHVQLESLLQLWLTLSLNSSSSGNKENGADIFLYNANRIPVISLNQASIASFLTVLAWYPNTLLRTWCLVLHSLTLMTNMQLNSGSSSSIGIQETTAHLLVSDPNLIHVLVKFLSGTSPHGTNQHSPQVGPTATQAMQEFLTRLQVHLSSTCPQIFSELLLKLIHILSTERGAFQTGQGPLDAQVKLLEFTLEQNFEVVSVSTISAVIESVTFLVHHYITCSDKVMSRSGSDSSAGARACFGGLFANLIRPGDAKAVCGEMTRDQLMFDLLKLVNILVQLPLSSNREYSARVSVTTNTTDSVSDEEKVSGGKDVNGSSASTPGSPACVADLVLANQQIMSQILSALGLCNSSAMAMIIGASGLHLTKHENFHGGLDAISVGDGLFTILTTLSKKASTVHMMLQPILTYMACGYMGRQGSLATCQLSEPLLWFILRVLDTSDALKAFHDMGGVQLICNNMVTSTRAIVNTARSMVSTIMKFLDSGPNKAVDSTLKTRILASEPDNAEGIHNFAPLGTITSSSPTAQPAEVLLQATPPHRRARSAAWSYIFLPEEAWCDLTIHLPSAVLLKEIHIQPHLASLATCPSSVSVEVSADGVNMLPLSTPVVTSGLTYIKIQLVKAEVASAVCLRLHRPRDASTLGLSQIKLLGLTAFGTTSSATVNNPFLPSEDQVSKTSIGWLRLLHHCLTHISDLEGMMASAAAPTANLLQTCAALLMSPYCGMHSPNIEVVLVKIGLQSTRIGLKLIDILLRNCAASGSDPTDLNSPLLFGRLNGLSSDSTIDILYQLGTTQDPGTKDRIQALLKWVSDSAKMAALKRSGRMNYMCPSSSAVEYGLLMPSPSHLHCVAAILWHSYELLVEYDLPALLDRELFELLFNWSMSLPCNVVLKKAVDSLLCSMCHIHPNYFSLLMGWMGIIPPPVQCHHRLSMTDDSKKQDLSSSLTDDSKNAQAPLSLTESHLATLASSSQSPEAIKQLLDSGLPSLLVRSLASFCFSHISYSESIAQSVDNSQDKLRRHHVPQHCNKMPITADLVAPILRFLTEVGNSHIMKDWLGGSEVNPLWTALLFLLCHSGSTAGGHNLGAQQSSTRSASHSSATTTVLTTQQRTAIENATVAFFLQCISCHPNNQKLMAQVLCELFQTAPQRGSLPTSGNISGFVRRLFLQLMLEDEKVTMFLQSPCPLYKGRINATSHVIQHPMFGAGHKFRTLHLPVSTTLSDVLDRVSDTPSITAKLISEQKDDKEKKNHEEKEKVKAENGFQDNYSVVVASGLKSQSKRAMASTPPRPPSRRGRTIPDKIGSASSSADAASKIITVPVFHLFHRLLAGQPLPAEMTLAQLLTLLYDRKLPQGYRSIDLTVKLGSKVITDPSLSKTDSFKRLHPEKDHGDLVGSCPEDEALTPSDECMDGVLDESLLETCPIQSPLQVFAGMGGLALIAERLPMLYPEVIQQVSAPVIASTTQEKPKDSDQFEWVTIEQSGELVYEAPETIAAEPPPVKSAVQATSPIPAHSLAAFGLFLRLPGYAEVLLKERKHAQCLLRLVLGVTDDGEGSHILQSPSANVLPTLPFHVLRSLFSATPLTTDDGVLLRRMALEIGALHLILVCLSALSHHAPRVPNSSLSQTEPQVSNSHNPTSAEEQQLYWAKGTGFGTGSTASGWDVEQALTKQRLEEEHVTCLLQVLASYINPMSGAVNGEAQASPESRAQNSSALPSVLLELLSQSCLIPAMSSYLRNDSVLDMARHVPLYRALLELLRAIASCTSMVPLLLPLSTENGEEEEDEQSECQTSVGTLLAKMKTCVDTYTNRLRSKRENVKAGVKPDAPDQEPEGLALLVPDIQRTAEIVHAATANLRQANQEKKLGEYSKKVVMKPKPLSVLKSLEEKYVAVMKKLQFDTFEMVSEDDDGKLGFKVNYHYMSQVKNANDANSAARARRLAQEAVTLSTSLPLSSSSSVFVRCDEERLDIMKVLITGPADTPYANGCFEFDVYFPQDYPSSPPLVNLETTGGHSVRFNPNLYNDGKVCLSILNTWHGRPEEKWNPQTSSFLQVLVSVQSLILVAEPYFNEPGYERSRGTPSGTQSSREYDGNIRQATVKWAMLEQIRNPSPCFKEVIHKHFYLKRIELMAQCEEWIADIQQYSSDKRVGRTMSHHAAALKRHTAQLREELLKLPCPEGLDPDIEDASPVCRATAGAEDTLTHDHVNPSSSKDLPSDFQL

- binding: binds
B1: Syntaxin 17 (protein, UniProt Q9D0I4 1-301)
chain: MSEDEEKVKLRRLEPAIQKFTKIVIPTDLERLRKHQINIEKYQRCRIWDKLHEEHINAGRTVQQLRSNIREMEKLCLKVHKDDLVLLKRMIDPVKEAAATATAEFLQLHLESVEELKKQVNDEELLQPSLTRSTTVDGVLHTGEAEAASQSLTQIYALPEIPQDQNAAESWETLEADLIELSHLVTDMSLLVSSQQEKIDSIADHVNSAAVNVEEGTKNLQKAAKYKLAALPVAGALIGGVVGGPIGLLAGFKVAGIAAALGGGVLGFTGGKLIQRRKQKMMEKLTSSCPDLPSQSDKKRS

— paper PMC8342531
